These are yes or no findings as the source states them, for the method shown. In cells and extracts the contact can be indirect. Some binding calls cover weakened binding; strength is not graded here.

Chains of the proteins cited; added tags and fusions are not shown. Lines headed by an entry give the natural chain unless they say otherwise; changes in a name come on top. Residues count along the entry.
UniProt P19438, residues 30-455: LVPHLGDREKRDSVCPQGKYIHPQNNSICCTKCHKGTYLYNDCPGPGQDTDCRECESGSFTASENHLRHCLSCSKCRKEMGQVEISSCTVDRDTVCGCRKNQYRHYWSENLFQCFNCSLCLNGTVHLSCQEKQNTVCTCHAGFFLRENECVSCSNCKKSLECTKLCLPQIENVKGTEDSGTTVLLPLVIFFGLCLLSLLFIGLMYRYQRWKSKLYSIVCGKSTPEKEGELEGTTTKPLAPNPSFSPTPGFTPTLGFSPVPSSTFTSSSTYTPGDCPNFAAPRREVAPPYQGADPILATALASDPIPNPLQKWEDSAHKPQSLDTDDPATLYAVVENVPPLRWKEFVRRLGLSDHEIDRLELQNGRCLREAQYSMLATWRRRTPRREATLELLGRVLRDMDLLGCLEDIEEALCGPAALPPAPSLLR
UniProt P24593: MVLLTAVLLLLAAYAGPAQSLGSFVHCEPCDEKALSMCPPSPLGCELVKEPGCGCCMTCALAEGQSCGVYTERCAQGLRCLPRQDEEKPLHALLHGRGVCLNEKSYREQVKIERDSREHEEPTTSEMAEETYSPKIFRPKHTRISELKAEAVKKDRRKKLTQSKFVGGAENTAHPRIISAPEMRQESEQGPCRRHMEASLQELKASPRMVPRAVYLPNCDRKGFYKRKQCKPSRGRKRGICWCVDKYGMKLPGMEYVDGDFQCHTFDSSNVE

In assay [1] the target is Flag-TNFR1 (UniProt P19438). The assay can be described thus: co-immunoprecipitation with TNFR1 antibody, Western blot with Myc antibody (FIG. 9). In general terms: A western blot detects proteins with antibodies after separation by electrophoresis.
The target in assay [2] is Flag-TNFR1 (UniProt P19438). The assay can be described thus: co-immunoprecipitation in media (FIG. 7).
In assay [3] the target is Flag-TNFR1 (UniProt P19438). Description: co-immunoprecipitation with Flag antibody in conditioned medium of co-transfected HEK293 cells.

Regarding “truncated mutant consisting of an IGFBP5 L-domain (from UniProt P24593 101-188)”, the binding entry with Flag-TNFR1 [1] is listed as “binds”. Regarding “IGFBP5-Myc-His (from UniProt P24593 21-272) (ligand)”, the binding result with Flag-TNFR1 [2] and with Flag-TNFR1 [3] was “binds” in each case.

The record behind these values is patent US20120046217A1.
